{"source": "PubChem BioAssay AID1347076", "about": "(National Center for Advancing Translational Sciences (NCATS), 2019)", "note": "Out of some 400,000 compounds screened, about 13,000 (3.2%) were called active. This list was built around the results that the source calls inconclusive (neither active nor inactive); the mix of calls is not that of the screen. Calls follow the shape of the dose curve; as a rule, active = well fitted cell-killing curve with a large enough effect; inconclusive = small, poorly fitted or top-dose-only effect, or effect the other way; inactive = flat fitted curve, though single readings scatter. Where the call is inconclusive, the potency comes from a doubtful curve fit. % is scaled to controls: 0 for no effect and ±100 for the full control effect; potency is read from the fitted curve at half-maximal effect.", "data": [{"assay": "qHTS assay for MDR1-selective chemotherapeutics: Primary screen using the drug-selected MDR subline cells KB-V1; also: nearly all actives have a fitted effect of over 60% in size", "conditions": "KB-V1 MDR cells viability, CellTiter-Glo, 72 h; activity change, negative = cytotoxicity: at 46.1 µM (top of the series)", "method_in_brief": "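Readout: CellTiter-Glo luminescence, 10 min after addition. Cells: KB-V1 MDR subline, 72 h at 37 degrees C with compound. Analysis: corrected, normalized data fitted to concentration-effect curves.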", "values": [{"smiles": "COc1ccc(C(=O)NCCc2ccc(C(F)(F)F)cc2)cc1S(=O)(=O)N1CCOCC1", "Potency": "inactive"}, {"smiles": "Oc1ccc(Br)cc1/C=N/n1cnc2ccccc21", "Potency": "active: 14.6 µM"}, {"smiles": "CC(OC(=O)C1=COCCO1)C(=O)c1ccc(Br)cc1", "note": "(stereo not drawn)", "Potency": "inconclusive: 2.59 µM [rising, full curve, poor fit]"}, {"smiles": "O=C(c1ccccc1)c1c[nH]c(C(=O)NCc2cccnc2)c1", "Potency": "inconclusive: 10.3 µM [rising, partial curve]"}, {"smiles": "Cc1ccc(S(=O)(=O)NCCCNC(=O)c2ccccc2)cc1", "Potency": "active: 18.4 µM"}, {"smiles": "Cc1nc(-c2ccc(S(=O)(=O)N3CCN(c4cccc(Cl)c4)CC3)cc2)co1", "Potency": "inactive"}, {"smiles": "O=C(CSc1nnc(CNC(=O)c2cccc(C(F)(F)F)c2)o1)NC1CCCC1", "Potency": "inactive"}, {"smiles": "COc1ccc(NS(=O)(=O)c2ccc3c(c2)Cc2ccccc2-3)cn1", "Potency": "inconclusive: 20.6 µM [cytotoxic, single point]"}, {"smiles": "CC(=O)c1cccc(NC(=O)c2sc(-n3nc(C)c(CCC(C)C)c3C)nc2C)c1", "Potency": "inactive"}, {"smiles": "Cc1noc(C)c1CSCC(=O)N1CCN(c2ccc([N+](=O)[O-])cc2)CC1", "Potency": "inconclusive: 18.4 µM [cytotoxic, single point]"}, {"smiles": "Cc1ccc(S(=O)(=O)N(C)c2ccc(OCC(=O)Nc3cccc(-n4cnnn4)c3C)cc2)cc1", "Potency": "inconclusive: 18.4 µM [cytotoxic, partial curve]"}, {"smiles": "O=CN1CCN(C(=O)CN2C(=O)c3ccccc3C2=O)CC1", "Potency": "inconclusive: 16.4 µM [rising, single point]"}, {"smiles": "COc1ccc(CCNC(=O)CSc2nc(-c3ccco3)cc(C(F)(F)F)n2)cc1", "Potency": "inconclusive: 20.6 µM [cytotoxic, partial curve]"}, {"smiles": "CC(C)(C)[C@H]1COC(=O)[C@H](NC(=O)OCC2c3ccccc3-c3ccccc32)C/C=C\\C[C@@H](CC(=O)N[C@@H](CO)Cc2ccccc2)C(=O)N1", "Potency": "inconclusive: 29.1 µM [rising, single point]"}, {"smiles": "CCCCNc1ncnc2c1cnn2-c1ccccc1", "Potency": "inconclusive: 3.66 µM [cytotoxic, full curve]"}, {"smiles": "Cc1nc2ncccn2c1-c1csc(Nc2ccc(N(C)C)cc2)n1", "Potency": "inconclusive: 0.366 µM [cytotoxic, full curve, poor fit]"}, {"smiles": "Cc1c(NC(=O)CSc2ccc(Cl)cc2)cccc1-c1nc2ncccc2o1", "Potency": "inconclusive: 20.6 µM [cytotoxic, single point]"}, {"smiles": "COc1ccc(C(=O)N2CCCC(Nc3ccc(F)c(F)c3)C2)c(OC)n1", "note": "(stereo not drawn)", "Potency": "inconclusive: 20.6 µM [cytotoxic, single point]"}, {"smiles": "CN(CCc1ccccn1)C(=O)CCC1CCCN(C(=O)CCOc2ccccc2)C1", "note": "(stereo not drawn)", "Potency": "inconclusive: 25.9 µM [cytotoxic, single point]"}, {"smiles": "COc1cccc(Nc2sc(C(=O)c3ccc4c(c3)OCO4)c(N)c2S(=O)(=O)c2ccccc2)c1", "Potency": "inconclusive: 4.11 µM [cytotoxic, full curve]"}, {"smiles": "Cc1ccc(C=O)cc1Cl", "Potency": "inactive"}, {"smiles": "C1=CC2c3ccccc3NC(c3ccncc3)C2C1", "note": "(stereo not drawn)", "Potency": "inactive"}, {"smiles": "Cc1ccccc1C(=O)Nc1ccc(N2CCN(C(=O)c3ccco3)CC2)cc1", "Potency": "inconclusive: 5.8 µM [cytotoxic, partial curve, poor fit]"}, {"smiles": "COc1ccc(OC)c(-c2cnc(OC(C)(C)C)nc2OC(C)(C)C)c1", "Potency": "inconclusive: 16.4 µM [cytotoxic, single point]"}, {"smiles": "COc1cccc(N2CC(O)Cn3c2nc2c3c(=O)n(CCCc3ccccc3)c(=O)n2C)c1", "note": "(stereo not drawn)", "Potency": "inconclusive: 14.6 µM [cytotoxic, single point]"}, {"smiles": "COC(=O)C1CCN(C(=O)COC(=O)c2cc([N+](=O)[O-])ccc2N2CCOCC2)CC1", "Potency": "inconclusive: 13 µM [cytotoxic, partial curve]"}, {"smiles": "O=C(NC1CCCC1)c1cnn(-c2ccc(F)cc2F)c1C1CCNCC1", "Potency": "inconclusive: 29.1 µM [rising, single point]"}, {"smiles": "Cc1cc(C)c(NC(=O)C(C)Sc2nc3ccc(N4C(=O)c5ccccc5C4=O)cc3s2)c(C)c1", "note": "(stereo not drawn)", "Potency": "inactive"}, {"smiles": "C#Cc1ccc([C@H]2C=C(C(=O)N3CCN(Cc4ccc5c(c4)OCO5)CC3)O[C@@H](OCc3ccc(CO)cc3)C2)cc1", "Potency": "inactive"}, {"smiles": "COc1ccccc1OCc1n[nH]c(=S)n1Cc1ccccc1", "Potency": "inconclusive: 16.4 µM [cytotoxic, partial curve]"}, {"smiles": "CCCc1nnc(NC(=O)CC(C)c2ccccc2)s1", "note": "(stereo not drawn)", "Potency": "inconclusive: 29.1 µM [cytotoxic, single point]"}, {"smiles": "Cc1ccc(C2=NC(c3ccc(F)cc3)=Nc3ccc(C)cc3N2)cc1", "Potency": "inactive"}, {"smiles": "Cc1ccc(Cn2c(O)c(N=NC(=S)Nc3ccccc3F)c3ccccc32)cc1", "Potency": "inconclusive: 5.8 µM [cytotoxic, full curve]"}, {"smiles": "Cn1c(N/N=C/c2cccs2)nc2c1c(=O)n(Cc1ccccc1)c(=O)n2C", "Potency": "inconclusive: 11.6 µM [cytotoxic, partial curve, poor fit]"}, {"smiles": "CCSc1nnc2c(n1)OC(c1ccc(OC)cc1OC)N(C(C)=O)c1ccccc1-2", "note": "(stereo not drawn)", "Potency": "inconclusive: 0.0082 µM [rising, full curve, poor fit]"}, {"smiles": "CC1CCCCC1NC(=O)CN1C(=O)NC(C)(c2cccc(Br)c2)C1=O", "note": "(stereo not drawn)", "Potency": "inactive"}, {"smiles": "O=C(CN1CCN(Cc2ccccc2)CC1)Nc1cccc(S(=O)(=O)N2CCCCCC2)c1", "Potency": "inconclusive: 2.91 µM [cytotoxic, partial curve]"}, {"smiles": "Cc1nc(C(F)(F)F)c(C(=O)NC(=O)Nc2ccc(OC(F)(F)F)cc2)s1", "Potency": "active: 16.4 µM"}, {"smiles": "C[C@H](CO)NC(=O)c1[nH]cnc1C(=O)Nc1ccc(CNC(=O)OC(C)(C)C)cc1", "Potency": "inactive"}, {"smiles": "COc1ccc(CCNC(=O)Cn2c(=O)n(-c3ccc(OC)c(OC)c3)c(=O)c3ccccc32)cc1OC", "Potency": "inconclusive: 20.6 µM [rising, partial curve, poor fit]"}, {"smiles": "CC1=NCCN1CCNC(=O)Nc1ccc(F)cc1", "Potency": "inconclusive: 1.64 µM [rising, partial curve, poor fit]"}, {"smiles": "CCOc1ccccc1NC(=O)NCCCCc1ccccc1", "Potency": "inconclusive: 0.731 µM [rising, full curve, poor fit]"}, {"smiles": "Cc1n[nH]c(=S)n1/N=C/c1ccccc1OCc1ccc(Cl)cc1", "Potency": "active: 11.6 µM"}, {"smiles": "Cc1ccc(CN2CCN(Cc3cnc(N(C)C)s3)CC2CCO)o1", "note": "(stereo not drawn)", "Potency": "inconclusive: 2.91 µM [cytotoxic, partial curve, poor fit]"}, {"smiles": "CCN(CC)CCNC(=O)CN1C(=O)c2cccnc2Oc2ccc(C)cc21", "Potency": "inconclusive: 23.1 µM [rising, partial curve, poor fit]"}, {"smiles": "O=C1CCCN2N=C(SCC(=O)Nc3ccc(F)cc3F)SC2=N1", "Potency": "inconclusive: 18.4 µM [rising, partial curve, poor fit]"}, {"smiles": "CN(C)c1ccc(S(=O)(=O)N2CCC(Cc3ccccc3)CC2)cn1", "Potency": "inactive"}, {"smiles": "Cc1ccc(C(=O)NCCc2nnc3ccc(SCC(=O)Nc4nnc(C)s4)nn23)cc1", "Potency": "inconclusive: 29.1 µM [rising, single point]"}, {"smiles": "Cc1cccc(-c2nnc(NC(=O)c3ccc(Cl)cc3)o2)c1", "Potency": "active: 13 µM"}, {"smiles": "CCOC(=O)c1ccc(NC(=O)c2cccc(S(=O)(=O)N3CCN(C(C)=O)CC3)c2)cc1", "Potency": "inactive"}, {"smiles": "COc1cccc(COC(=O)C2CC(=O)N(Cc3ccccc3)C2)c1OC", "note": "(stereo not drawn)", "Potency": "inconclusive: 18.4 µM [rising, partial curve, poor fit]"}, {"smiles": "Cc1ccc(S(=O)(=O)N2CCN(c3ccc(C(=O)N4CCOCC4)cc3[N+](=O)[O-])CC2)cc1", "Potency": "active: 2.91 µM"}, {"smiles": "CCN(C(=O)c1sc2cc(OC)ccc2c1Cl)c1ccccc1", "Potency": "inconclusive: 18.4 µM [cytotoxic, single point]"}, {"smiles": "CCC(=O)N1CCN(c2ccccc2NC(=S)NC(=O)c2cccc([N+](=O)[O-])c2)CC1", "Potency": "inconclusive: 18.4 µM [cytotoxic, single point]"}, {"smiles": "O=C(NCc1ccccn1)c1cc(-c2ccccc2)nc2ccccc12", "Potency": "inactive"}, {"smiles": "COc1cc(/C=N/n2c(-c3cc(C)[nH]n3)n[nH]c2=S)cc(OC)c1O", "Potency": "inconclusive: 23.1 µM [rising, single point]"}, {"smiles": "C=CC[n+]1c(-c2ccc(C)cc2)csc1Nc1ccc(NC(C)=O)cc1", "Potency": "inconclusive: 13 µM [cytotoxic, partial curve, poor fit]"}, {"smiles": "CN(C)C(=O)c1ccc(NC(=O)c2cc(-n3cnnc3)ccc2Cl)cc1", "activity change, negative = cytotoxicity": "inconclusive: 78.6%"}, {"smiles": "CCC1=NN(C(=O)c2cccc(Br)c2)C(O)(c2ccc(Br)cc2)C1", "note": "(stereo not drawn)", "Potency": "inconclusive: 13 µM [cytotoxic, partial curve, poor fit]"}, {"smiles": "COc1cc(OC)cc(N2CC(C)(C)C2=O)c1", "Potency": "inactive"}, {"smiles": "CC(C)C[C@@H](COCc1ccc(Cl)cc1)N1CCN(C(=O)c2ccc(Cl)cc2Cl)CCC1=O", "Potency": "inconclusive: 29.1 µM [cytotoxic, single point]"}, {"smiles": "O=C(Nc1ccc2c(c1)OCCO2)C1CCCN1S(=O)(=O)c1cccc2cccnc12", "note": "(stereo not drawn)", "activity change, negative = cytotoxicity": "inconclusive: 8.12%"}, {"smiles": "COc1ccc(C(=O)Nc2ccc(C(=O)N3CCC(C)CC3)cc2)cc1OC", "Potency": "inactive"}, {"smiles": "Cc1nn(C(C)C(=O)NCc2ccco2)c(C)c1[N+](=O)[O-]", "note": "(stereo not drawn)", "Potency": "inactive"}, {"smiles": "CN(C)CCOCCOc1ccc(Cl)cc1C(C)(C)C", "Potency": "inconclusive: 29.1 µM [cytotoxic, single point]"}, {"smiles": "CC(C)CCNC(=O)Nc1ccc2c(c1)N(C)C(=O)CS2", "Potency": "active: 20.6 µM"}, {"smiles": "CC(=O)Nc1ccc2c(c1)Cc1ccc(Cl)cc1-2", "Potency": "inconclusive: 20.6 µM [cytotoxic, single point]"}, {"smiles": "CC(/C=C1\\SC(=Nc2cccnc2)NC1=O)=C\\c1ccccc1", "Potency": "active: 8.2 µM"}]}]}
